# Results as given in PubChem BioAssay.
# Inconclusive results, whose numbers are uncertain, are shown with a selection of clear calls. Activity calls are given as the source filed them.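 Rule for the calls: active = inhibition over a set limit, the all-compound mean plus 3 SD, in both replicate runs; inconclusive = over that limit in just one replicate run; inactive = at or under that limit in both runs.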
# Assay: RAM pathway blockade in budding yeast – dse1pr::URA3 reporter, 5-FOA selection, pilot screen (AID 869);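 note: 0% = DMSO wells with no growth and 100% = 10 µM 1-NA-PP1 with full growth; RAM network block rescues cells from 5-FOA so hits raise OD615 growth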
# Conditions: S. cerevisiae dse1pr::URA3 5-FOA growth, OD615, 2 d; at 10 µM; active compounds read high; strain carries analog-sensitive mutant Cbk1 kinase
row,Compound,inhibition
1,CS(=O)(=O)c1ccc2nc(NC(=O)Cc3ccccc3)sc2c1,inconclusive: 3.21%
2,CCOC(=O)N1CCN(Cc2nc3c(c(=O)n(C)c(=O)n3C)n2CCC(C)C)CC1,inactive: 0.37%
3,CCCc1cc(C(=O)NCCc2ccc(OC)c(OC)c2)no1,inconclusive: 3.84%
4,COc1cccc(-c2nnc(NC(=O)C3CCCCC3)o2)c1,inactive: 1.85%
5,COc1cccc(C2N(c3ccc(Cl)cc3)C(=O)C3CCCN32)c1 (stereo not given),inactive: 1.04%
6,COc1ccc(Nc2cc(C)nc3nc(C)nn23)cc1Cl,inactive: -0.465%
7,O=C(OCC1COc2ccccc2O1)c1c(F)cccc1F (stereo not given),inconclusive: 3.92%
8,COc1ccc(-c2nc(-c3cccc(C(F)(F)F)c3)no2)cc1OC,inconclusive: 5.5%
9,COC(=O)c1ccc(Nc2ncnc3c2cnn3-c2cccc(C)c2)cc1,inconclusive: 5.5%
10,COc1ccccc1-c1cc(C(F)(F)F)nc(N2CCOCC2)n1,inconclusive: 6.46%
11,COc1ccccc1-c1nc(-c2ccc(Br)cc2)no1,inconclusive: 5.07%
12,COc1ccc(-c2cn3c(C)c(C(=O)NC(C)(C)C)sc3n2)cc1,inactive: 0.645%
13,Cc1cc2cc(CNC(=O)C3CCCC3)ccc2n1C,inconclusive: 5.62%
14,CCn1c(=O)c2cc(C(=O)NCc3cccs3)sc2c2ccccc21,inconclusive: 5.66%
15,COc1ccc(-n2c(SCC(=O)N3CCCC3)nc3c([nH]c4ccccc43)c2=O)cc1,inconclusive: 5.15%
16,CN1C(=O)c2cccc(NC(=O)CCc3ccccc3)c2C1=O,inconclusive: 4.37%
17,Cn1c(Cn2c(=O)sc3ccccc32)nnc1SCC(=O)Nc1ccc(F)cc1,inconclusive: 4.5%
18,COc1ccc(C(=O)CSc2nnc(-c3ccccc3)o2)cc1,inconclusive: 5.05%
19,O=C(O)CCCC(=O)Nc1ccccc1Br,inactive: 1.11%
20,Cc1ccc(Nc2ncnc3nc[nH]c23)cc1Cl,inconclusive: 5.74%
21,COc1ccc(-c2nc(CS(=O)CC(=O)NCc3ccc(Cl)cc3)c(C)o2)cc1 (stereo not given),inconclusive: 2.82%
22,Cn1c(=O)c2nc(-c3ccc(Cl)cc3Cl)oc2c2ccccc21,inactive: 2.31%
23,CCCCOc1ccc(S(=O)(=O)Nc2cc(OC)ccc2OC)cc1,inconclusive: 10.4%
24,Cc1ccc(NC(=O)CSc2nnc(Cn3c(=O)sc4ccccc43)n2C)cc1,inconclusive: 4.51%
25,O=C(c1cccs1)N(C(=O)c1cccs1)c1ccccn1,inconclusive: 4%

# Shown with tabs: part of the list above.
row	Compound	inhibition
23	CCCCOc1ccc(S(=O)(=O)Nc2cc(OC)ccc2OC)cc1	inconclusive: 10.4%
24	Cc1ccc(NC(=O)CSc2nnc(Cn3c(=O)sc4ccccc43)n2C)cc1	inconclusive: 4.51%
